# Measured values reported in article PMC10130768.
# B1: SMC1A (protein, UniProt Q14683 1-1233)
# chain: MGFLKLIEIENFKSYKGRQIIGPFQRFTAIIGPNGSGKSNLMDAISFVLGEKTSNLRVKTLRDLIHGAPVGKPAANRAFVSMVYSEEGAEDRTFARVIVGGSSEYKINNKVVQLHEYSEELEKLGILIKARNFLVFQGAVESIAMKNPKERTALFEEISRSGELAQEYDKRKKEMVKAEEDTQFNYHRKKNIAAERKEAKQEKEEADRYQRLKDEVVRAQVQLQLFKLYHNEVEIEKLNKELASKNKEIEKDKKRMDKVEDELKEKKKELGKMMREQQQIEKEIKEKDSELNQKRPQYIKAKENTSHKIKKLEAAKKSLQNAQKHYKKRKGDMDELEKEMLSVEKARQEFEERMEEESQSQGRDLTLEENQVKKYHRLKEEASKRAATLAQELEKFNRDQKADQDRLDLEERKKVETEAKIKQKLREIEENQKRIEKLEEYITTSKQSLEEQKKLEGELTEEVEMAKRRIDEINKELNQVMEQLGDARIDRQESSRQQRKAEIMESIKRLYPGSVYGRLIDLCQPTQKKYQIAVTKVLGKNMDAIIVDSEKTGRDCIQYIKEQRGEPETFLPLDYLEVKPTDEKLRELKGAKLVIDVIRYEPPHIKKALQYACGNALVCDNVEDARRIAFGGHQRHKTVALDGTLFQKSGVISGGASDLKAKARRWDEKAVDKLKEKKERLTEELKEQMKAKRKEAELRQVQSQAHGLQMRLKYSQSDLEQTKTRHLALNLQEKSKLESELANFGPRINDIKRIIQSREREMKDLKEKMNQVEDEVFEEFCREIGVRNIREFEEEKVKRQNEIAKKRLEFENQKTRLGIQLDFEKNQLKEDQDKVHMWEQTVKKDENEIEKLKKEEQRHMKIIDETMAQLQDLKNQHLAKKSEVNDKNHEMEEIRKKLGGANKEMTHLQKEVTAIETKLEQKRSDRHNLLQACKMQDIKLPLSKGTMDDISQEEGSSQGEDSVSGSQRISSIYAREALIEIDYGDLCEDLKDAQAEEEIKQEMNTLQQKLNEQQSVLQRIAAPNMKAMEKLESVRDKFQETSDEFEAARKRAKKAKQAFEQIKKERFDRFNACFESVATNIDEIYKALSRNSSAQAFLGPENPEEPYLDGINYNCVAPGKRFRPMDNLSGGEKTVAALALLFAIHSYKPAPFFVLDEIDAALDNTNIGKVANYIKEQSTCNFQAIVISLKEEFYTKAESLIGVYPEQGDCVISKVLTFDLTKYPDANPNPNEQ
# B2: NUP133 (protein, UniProt Q8WUM0 1-1156)
# chain: MFPAAPSPRTPGTGSRRGPLAGLGPGSTPRTASRKGLPLGSAVSSPVLFSPVGRRSSLSSRGTPTRMFPHHSITESVNYDVKTFGSSLPVKVMEALTLAEVDDQLTINIDEGGWACLVCKEKLIIWKIALSPITKLSVCKELQLPPSDFHWSADLVALSYSSPSGEAHSTQAVAVMVATREGSIRYWPSLAGEDTYTEAFVDSGGDKTYSFLTAVQGGSFILSSSGSQLIRLIPESSGKIHQHILPQGQGMLSGIGRKVSSLFGILSPSSDLTLSSVLWDRERSSFYSLTSSNISKWELDDSSEKHAYSWDINRALKENITDAIWGSESNYEAIKEGVNIRYLDLKQNCDGLVILAAAWHSADNPCLIYYSLITIEDNGCQMSDAVTVEVTQYNPPFQSEDLILCQLTVPNFSNQTAYLYNESAVYVCSTGTGKFSLPQEKIVFNAQGDSVLGAGACGGVPIIFSRNSGLVSITSRENVSILAEDLEGSLASSVAGPNSESMIFETTTKNETIAQEDKIKLLKAAFLQYCRKDLGHAQMVVDELFSSHSDLDSDSELDRAVTQISVDLMDDYPASDPRWAESVPEEAPGFSNTSLIILHQLEDKMKAHSFLMDFIHQVGLFGRLGSFPVRGTPMATRLLLCEHAEKLSAAIVLKNHHSRLSDLVNTAILIALNKREYEIPSNLTPADVFFREVSQVDTICECLLEHEEQVLRDAPMDSIEWAEVVINVNNILKDMLQAASHYRQNRNSLYRREESLEKEPEYVPWTATSGPGGIRTVIIRQHEIVLKVAYPQADSNLRNIVTEQLVALIDCFLDGYVSQLKSVDKSSNRERYDNLEMEYLQKRSDLLSPLLSLGQYLWAASLAEKYCDFDILVQMCEQTDNQSRLQRYMTQFADQNFSDFLFRWYLEKGKRGKLLSQPISQHGQLANFLQAHEHLSWLHEINSQELEKAHATLLGLANMETRYFAKKKTLLGLSKLAALASDFSEDMLQEKIEEMAEQERFLLHQETLPEQLLAEKQLNLSAMPVLTAPQLIGLYICEENRRANEYDFKKALDLLEYIDEEEDININDLKLEILCKALQRDNWSSSDGKDDPIEVSKDSIFVKILQKLLKDGIQLSEYLPEVKDLLQADQLGSLKSNPYFEFVLKANYEYYVQGQI
# B3: CTNNBL1 (protein, UniProt Q8WYA6 1-563)
# chain: MDVGELLSYQPNRGTKRPRDDEEEEQKMRRKQTGTRERGRYREEEMTVVEEADDDKKRLLQIIDRDGEEEEEEEEPLDESSVKKMILTFEKRSYKNQELRIKFPDNPEKFMESELDLNDIIQEMHVVATMPDLYHLLVELNAVQSLLGLLGHDNTDVSIAVVDLLQELTDIDTLHESEEGAEVLIDALVDGQVVALLVQNLERLDESVKEEADGVHNTLAIVENMAEFRPEMCTEGAQQGLLQWLLKRLKAKMPFDANKLYCSEVLAILLQDNDENRELLGELDGIDVLLQQLSVFKRHNPSTAEEQEMMENLFDSLCSCLMLSSNRERFLKGEGLQLMNLMLREKKISRSSALKVLDHAMIGPEGTDNCHKFVDILGLRTIFPLFMKSPRKIKKVGTTEKEHEEHVCSILASLLRNLRGQQRTRLLNKFTENDSEKVDRLMELHFKYLGAMQVADKKIEGEKHDMVRRGEIIDNDTEEEFYLRRLDAGLFVLQHICYIMAEICNANVPQIRQRVHQILNMRGSSIKIVRHIIKEYAENIGDGRSPEFRENEQKRILGLLENF
# B4: NUP107 (protein, UniProt P57740 1-925)
# chain: MDRSGFGEISSPVIREAEVTRTARKQSAQKRVLLQASQDENFGNTTPRNQVIPRTPSSFRQPFTPTSRSLLRQPDISCILGTGGKSPRLTQSSGFFGNLSMVTNLDDSNWAAAFSSQRSGLFTNTEPHSITEDVTISAVMLREDDPGEAASMSMFSDFLQSFLKHSSSTVFDLVEEYENICGSQVNILSKIVSRATPGLQKFSKTASMLWLLQQEMVTWRLLASLYRDRIQSALEEESVFAVTAVNASEKTVVEALFQRDSLVRQSQLVVDWLESIAKDEIGEFSDNIEFYAKSVYWENTLHTLKQRQLTSYVGSVRPLVTELDPDAPIRQKMPLDDLDREDEVRLLKYLFTLIRAGMTEEAQRLCKRCGQAWRAATLEGWKLYHDPNVNGGTELEPVEGNPYRRIWKISCWRMAEDELFNRYERAIYAALSGNLKQLLPVCDTWEDTVWAYFRVMVDSLVEQEIQTSVATLDETEELPREYLGANWTLEKVFEELQATDKKRVLEENQEHYHIVQKFLILGDIDGLMDEFSKWLSKSRNNLPGHLLRFMTHLILFFRTLGLQTKEEVSIEVLKTYIQLLIREKHTNLIAFYTCHLPQDLAVAQYALFLESVTEFEQRHHCLELAKEADLDVATITKTVVENIRKKDNGEFSHHDLAPALDTGTTEEDRLKIDVIDWLVFDPAQRAEALKQGNAIMRKFLASKKHEAAKEVFVKIPQDSIAEIYNQCEEQGMESPLPAEDDNAIREHLCIRAYLEAHETFNEWFKHMNSVPQKPALIPQPTFTEKVAHEHKEKKYEMDFGIWKGHLDALTADVKEKMYNVLLFVDGGWMVDVREDAKEDHERTHQMVLLRKLCLPMLCFLLHTILHSTGQYQECLQLADMVSSERHKLYLVFSKEELRKLLQKLRESSLMLLDQGLDPLGYEIQL
# Target: HA-FLAG-tagged mouse WT BAZ2A (mouse)
# Assay: affinity purification with mass spectrometry; anti-HA magnetic beads IP of F/H-BAZ2AWT or F/H-BAZ2A_(WY/GA) from MNase-digested nuclear extracts of transfected PC3 cells; LC-MS/MS; three replicates; empty vector as control
row,binding,Binder
1,binds,B1
2,binds,B2
3,binds,B3
4,binds,B4

# No constants are given. Whether binding was seen depends on the method and setting. In cells and extracts the contact can be indirect. Here binding means that the protein was enriched with, or labelled near, the bait; the list need not be complete.
